Here are results for 1 molecule from publication PMC13101372.

These are yes or no findings as the source states them, for the method shown. Some entries that bind do so weakly or less than the wild type.

This experiment concerns the target T1, Glast multimers (endogenous murine Glast, multimeric form) (mouse (endogenous in primary astrocytes)), P56564.
T1 chain: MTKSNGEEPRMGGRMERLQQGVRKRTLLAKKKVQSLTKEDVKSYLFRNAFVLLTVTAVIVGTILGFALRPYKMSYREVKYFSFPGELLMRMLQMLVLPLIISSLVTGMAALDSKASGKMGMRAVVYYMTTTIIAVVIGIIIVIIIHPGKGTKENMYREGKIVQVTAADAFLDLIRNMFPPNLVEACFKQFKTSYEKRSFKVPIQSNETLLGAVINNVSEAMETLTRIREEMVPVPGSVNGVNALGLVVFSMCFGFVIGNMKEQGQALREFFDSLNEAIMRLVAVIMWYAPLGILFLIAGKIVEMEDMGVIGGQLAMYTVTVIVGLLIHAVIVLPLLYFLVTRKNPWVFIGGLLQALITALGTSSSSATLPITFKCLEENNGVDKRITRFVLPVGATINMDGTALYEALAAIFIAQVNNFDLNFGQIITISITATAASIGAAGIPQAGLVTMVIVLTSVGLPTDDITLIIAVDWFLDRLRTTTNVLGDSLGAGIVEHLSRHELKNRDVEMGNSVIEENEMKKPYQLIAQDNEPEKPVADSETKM
Description: Western blot of lysates (multimer bands that resist solubilisation); anti-Glast Western blots of lysates from three independent primary astrocyte cultures. The settings on record: remark: other sources report otherwise.

B1: Glast multimers (endogenous murine Glast, multimeric form), P56564 1-543 (complex)
chain: MTKSNGEEPRMGGRMERLQQGVRKRTLLAKKKVQSLTKEDVKSYLFRNAFVLLTVTAVIVGTILGFALRPYKMSYREVKYFSFPGELLMRMLQMLVLPLIISSLVTGMAALDSKASGKMGMRAVVYYMTTTIIAVVIGIIIVIIIHPGKGTKENMYREGKIVQVTAADAFLDLIRNMFPPNLVEACFKQFKTSYEKRSFKVPIQSNETLLGAVINNVSEAMETLTRIREEMVPVPGSVNGVNALGLVVFSMCFGFVIGNMKEQGQALREFFDSLNEAIMRLVAVIMWYAPLGILFLIAGKIVEMEDMGVIGGQLAMYTVTVIVGLLIHAVIVLPLLYFLVTRKNPWVFIGGLLQALITALGTSSSSATLPITFKCLEENNGVDKRITRFVLPVGATINMDGTALYEALAAIFIAQVNNFDLNFGQIITISITATAASIGAAGIPQAGLVTMVIVLTSVGLPTDDITLIIAVDWFLDRLRTTTNVLGDSLGAGIVEHLSRHELKNRDVEMGNSVIEENEMKKPYQLIAQDNEPEKPVADSETKM
Turning to B1, the binding result is reported as “binds”.
